In US20220380374A1, “1,4-DIHYDROBENZO[D]PYRAZOLO[3,4-F][1,3]DIAZEPINE DERIVATIVES AND RELATED COMPOUNDS AS LRRK2, NUAK1 AND/OR TYK2 KINASE MODULATORS FOR THE TREATMENT OF E.G. AUTOIMMUNE DISEASE” (Origenis GMBH, priority 2019, published 2022):
Some entries share one result that the patent states for a list of compounds.

The chains behind the UniProt entries cited, without tags or fusion partners. Where a name states a change or a piece, a line headed by the entry shows the natural chain unless it says otherwise.
UniProt Q5S007: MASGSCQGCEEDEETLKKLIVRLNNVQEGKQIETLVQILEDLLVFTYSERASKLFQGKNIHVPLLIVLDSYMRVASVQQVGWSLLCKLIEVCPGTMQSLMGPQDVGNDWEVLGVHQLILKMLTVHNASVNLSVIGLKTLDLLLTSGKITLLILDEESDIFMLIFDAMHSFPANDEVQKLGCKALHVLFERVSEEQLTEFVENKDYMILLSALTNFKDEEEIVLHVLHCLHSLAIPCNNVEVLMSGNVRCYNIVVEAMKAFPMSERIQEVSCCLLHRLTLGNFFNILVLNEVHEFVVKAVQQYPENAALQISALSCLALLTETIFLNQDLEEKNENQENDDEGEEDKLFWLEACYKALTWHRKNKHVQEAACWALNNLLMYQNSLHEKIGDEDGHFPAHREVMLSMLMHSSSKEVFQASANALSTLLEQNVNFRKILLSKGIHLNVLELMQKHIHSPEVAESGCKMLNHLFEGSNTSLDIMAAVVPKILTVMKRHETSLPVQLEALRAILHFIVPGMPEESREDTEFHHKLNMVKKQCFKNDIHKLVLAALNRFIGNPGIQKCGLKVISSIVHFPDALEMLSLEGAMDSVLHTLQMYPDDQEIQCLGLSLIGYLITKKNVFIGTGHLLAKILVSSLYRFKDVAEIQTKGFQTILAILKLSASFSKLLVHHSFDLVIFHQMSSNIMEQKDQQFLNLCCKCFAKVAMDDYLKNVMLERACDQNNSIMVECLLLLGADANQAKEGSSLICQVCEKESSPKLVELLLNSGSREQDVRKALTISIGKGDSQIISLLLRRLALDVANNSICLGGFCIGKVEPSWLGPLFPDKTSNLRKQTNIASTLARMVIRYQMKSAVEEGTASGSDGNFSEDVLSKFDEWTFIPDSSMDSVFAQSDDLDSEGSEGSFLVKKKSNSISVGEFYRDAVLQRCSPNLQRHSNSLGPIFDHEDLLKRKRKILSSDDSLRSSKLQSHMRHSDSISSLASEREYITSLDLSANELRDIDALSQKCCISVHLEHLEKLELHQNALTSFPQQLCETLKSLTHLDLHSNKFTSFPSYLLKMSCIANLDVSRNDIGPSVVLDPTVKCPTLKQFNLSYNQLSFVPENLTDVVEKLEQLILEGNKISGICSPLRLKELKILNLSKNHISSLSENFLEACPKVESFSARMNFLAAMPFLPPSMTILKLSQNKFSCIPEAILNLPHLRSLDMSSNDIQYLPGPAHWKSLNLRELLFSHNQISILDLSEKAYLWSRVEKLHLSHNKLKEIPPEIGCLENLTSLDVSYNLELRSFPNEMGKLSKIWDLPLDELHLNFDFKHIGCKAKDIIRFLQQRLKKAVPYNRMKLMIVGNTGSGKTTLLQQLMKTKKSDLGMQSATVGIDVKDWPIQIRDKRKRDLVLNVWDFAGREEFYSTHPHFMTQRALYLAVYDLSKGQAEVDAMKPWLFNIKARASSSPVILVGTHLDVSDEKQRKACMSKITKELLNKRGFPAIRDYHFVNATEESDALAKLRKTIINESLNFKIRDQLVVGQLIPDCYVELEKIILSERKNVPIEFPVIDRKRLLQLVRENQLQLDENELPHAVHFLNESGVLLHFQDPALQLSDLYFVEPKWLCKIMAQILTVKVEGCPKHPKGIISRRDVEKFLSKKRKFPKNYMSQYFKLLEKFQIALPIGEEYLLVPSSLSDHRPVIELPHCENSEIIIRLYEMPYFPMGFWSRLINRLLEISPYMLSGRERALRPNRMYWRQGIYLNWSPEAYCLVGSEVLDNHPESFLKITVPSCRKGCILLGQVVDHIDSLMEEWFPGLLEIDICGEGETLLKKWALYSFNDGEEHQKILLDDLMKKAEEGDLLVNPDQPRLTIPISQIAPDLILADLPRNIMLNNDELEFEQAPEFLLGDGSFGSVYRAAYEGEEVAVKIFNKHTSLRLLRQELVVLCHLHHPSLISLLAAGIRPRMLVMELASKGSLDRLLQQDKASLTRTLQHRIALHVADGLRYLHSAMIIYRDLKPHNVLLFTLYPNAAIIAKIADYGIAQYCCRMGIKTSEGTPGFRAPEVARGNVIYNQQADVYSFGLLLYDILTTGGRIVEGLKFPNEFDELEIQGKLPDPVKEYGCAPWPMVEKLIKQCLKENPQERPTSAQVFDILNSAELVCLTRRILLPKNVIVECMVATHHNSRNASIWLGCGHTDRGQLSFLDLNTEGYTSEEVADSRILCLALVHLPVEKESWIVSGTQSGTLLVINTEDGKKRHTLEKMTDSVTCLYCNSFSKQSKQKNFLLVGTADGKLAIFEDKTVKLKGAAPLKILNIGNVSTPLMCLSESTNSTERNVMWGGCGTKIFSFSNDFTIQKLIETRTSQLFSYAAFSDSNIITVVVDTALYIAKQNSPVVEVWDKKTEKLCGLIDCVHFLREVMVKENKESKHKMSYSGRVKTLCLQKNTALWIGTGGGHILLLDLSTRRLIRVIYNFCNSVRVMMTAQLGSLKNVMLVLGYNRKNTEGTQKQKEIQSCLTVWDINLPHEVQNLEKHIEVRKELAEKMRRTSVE

biological target: T1, LRRK2 (Wt) and LRRK2 (G2019) (Homo sapiens, UniProt Q5S007); assay: TR-FRET LanthaScreen Eu Kinase Binding Assay, LRRK2; conditions: one value class stated for wt and G2019 LRRK2 together; 10 nM Kinase Tracer 236; read-out: IC50, inhibitory activity toward LRRK2 (Wt) and LRRK2 (G2019)
T1 construct: fused on or other part: GST tag, inferred from the Eu-Anti-GST antibody used for detection

Compound	IC50 [µM]
5-(2,6-difluoro-3-methoxyphenyl)-9-methyl-2,4-dihydrobenzo[d]pyrazolo[3,4-f][1,3]diazepine [Compound 180]	< 0.01
5-(2,6-difluorophenyl)-9-(trifluoromethyl)-1,4-dihydropyrazolo[4,3-d]pyrido [4,3-f][1,3]diazepine [Compound 151]	< 0.01
5-(2,6-difluorophenyl)-N-(2-fluoroethyl)-1,6-dihydrobenzo[d]pyrazolo[3,4-f][1,3]diazepin-9-amine [Compound 115]	< 0.01
Fc1cccc(F)c1C1=Nc2cn[nH]c2-c2ccccc2N1 [Compound 8, 5-(2,6-difluorophenyl)-1,6-dihydrobenzo[d]pyrazolo[3,4-f][1,3]diazepine]	< 0.01
Fc1ccc(Cl)c(F)c1C1=Nc2ccccc2-c2[nH]ncc2N1 [Compound 18, 5-(3-chloro-2,6-difluorophenyl)-1,4-dihydrobenzo[d]pyrazolo[3,4-f][1,3]diazepine]	< 0.01
Fc1cccc(F)c1C1=Nc2ccc(Cl)cc2-c2[nH]ncc2N1 [Compound 25, 9-chloro-5-(2,6-difluorophenyl)-1,4-dihydrobenzo[d]pyrazolo[3,4-f][1,3]diazepine]	< 0.01
Fc1cccc(Cl)c1C1=Nc2ccccc2-c2[nH]ncc2N1 [Compound 27, 5-(2-chloro-6-fluorophenyl)-1,4-dihydrobenzo[d]pyrazolo[3,4-f][1,3]diazepine]	< 0.01
Fc1ccc2c(c1)-c1[nH]ncc1N=C(c1c(F)cccc1F)N2 [Compound 33, 5-(2,6-difluorophenyl)-9-fluoro-1,6-dihydrobenzo[d]pyrazolo[3,4-f][1,3]diazepine]	< 0.01
Fc1ccc2c(c1)-c1[nH]ncc1N=C(c1c(F)cccc1Cl)N2 [Compound 34, 5-(2-chloro-6-fluorophenyl)-9-fluoro-1,6-dihydrobenzo[d]pyrazolo[3,4-f][1,3]diazepine]	< 0.01
Cc1ccc2c(c1)-c1[nH]ncc1N=C(c1c(F)cccc1Cl)N2 [Compound 35, 5-(2-chloro-6-fluorophenyl)-9-methyl-1,6-dihydrobenzo[d]pyrazolo[3,4-f][1,3]diazepine]	< 0.01
Cc1ccc2c(c1)-c1[nH]ncc1N=C(c1c(F)cccc1F)N2 [Compound 36, 5-(2,6-difluorophenyl)-9-methyl-1,6-dihydrobenzo[d]pyrazolo[3,4-f][1,3]diazepine]	< 0.01
Fc1cccc(Cl)c1C1=Nc2ccc(Cl)cc2-c2[nH]ncc2N1 [Compound 37, 9-chloro-5-(2-chloro-6-fluorophenyl)-1,4-dihydrobenzo[d]pyrazolo[3,4-f][1,3]diazepine]	< 0.01
COc1ccc2c(c1)-c1[nH]ncc1N=C(c1c(F)cccc1F)N2 [Compound 38, 5-(2,6-difluorophenyl)-9-methoxy-1,6-dihydrobenzo[d]pyrazolo[3,4-f][1,3]diazepine]	< 0.01
COc1ccc2c(c1)-c1[nH]ncc1N=C(c1c(F)cccc1Cl)N2 [Compound 39, 5-(2-chloro-6-fluorophenyl)-9-methoxy-1,6-dihydrobenzo[d]pyrazolo[3,4-f][1,3]diazepine]	< 0.01
Fc1cccc(F)c1C1=Nc2cn[nH]c2-c2cc(OC(F)(F)F)ccc2N1 [Compound 40, 5-(2,6-difluorophenyl)-9-(trifluoromethoxy)-1,6-dihydrobenzo[d]pyrazolo[3,4-f][1,3]diazepine]	< 0.01
Fc1cccc(Cl)c1C1=Nc2cn[nH]c2-c2cc(OC(F)(F)F)ccc2N1 [Compound 41, 5-(2-chloro-6-fluorophenyl)-9-(trifluoromethoxy)-1,6-dihydrobenzo[d]pyrazolo[3,4-f][1,3]diazepine]	< 0.01
Fc1cccc(F)c1C1=Nc2cn[nH]c2-c2cc(OC(F)F)ccc2N1 [Compound 42, 9-(difluoromethoxy)-5-(2,6-difluorophenyl)-1,6-dihydrobenzo[d]pyrazolo[3,4-f][1,3]diazepine]	< 0.01
Fc1cccc(Cl)c1C1=Nc2cn[nH]c2-c2cc(OC(F)F)ccc2N1 [Compound 43, 5-(2-chloro-6-fluorophenyl)-9-(difluoromethoxy)-1,6-dihydrobenzo[d]pyrazolo[3,4-f][1,3]diazepine]	< 0.01
CCc1ccc2c(c1)-c1[nH]ncc1N=C(c1c(F)cccc1F)N2 [Compound 44, 5-(2,6-difluorophenyl)-9-ethyl-1,6-dihydrobenzo[d]pyrazolo[3,4-f][1,3]diazepine]	< 0.01
CCc1ccc2c(c1)-c1[nH]ncc1N=C(c1c(F)cccc1Cl)N2 [Compound 45, 5-(2-chloro-6-fluorophenyl)-9-ethyl-1,6-dihydrobenzo[d]pyrazolo[3,4-f][1,3]diazepine]	< 0.01
Fc1cccc(F)c1C1=Nc2cn[nH]c2-c2cc(C(F)(F)F)ccc2N1 [Compound 46, 5-(2,6-difluorophenyl)-9-(trifluoromethyl)-1,6-dihydrobenzo[d]pyrazolo[3,4-f][1,3]diazepine]	< 0.01

Compound	IC50 [µM]
Fc1cccc(Cl)c1C1=Nc2cn[nH]c2-c2cc(C(F)(F)F)ccc2N1 [Compound 47, 5-(2-chloro-6-fluorophenyl)-9-(trifluoromethyl)-1,6-dihydrobenzo[d]pyrazolo[3,4-f][1,3]diazepine]	< 0.01
COc1ccc2c(c1)N=C(c1c(F)cccc1F)Nc1cn[nH]c1-2 [Compound 49, 5-(2,6-difluorophenyl)-8-methoxy-1,4-dihydrobenzo[d]pyrazolo[3,4-f][1,3]diazepine]	< 0.01
OCc1ccc2c(c1)-c1[nH]ncc1N=C(c1c(F)cccc1F)N2 [Compound 50, (5-(2,6-difluorophenyl)-1,6-dihydrobenzo[d]pyrazolo[3,4-f][1,3]diazepin-9-yl)methanol]	< 0.01
FCc1ccc2c(c1)-c1[nH]ncc1N=C(c1c(F)cccc1F)N2 [Compound 51, 5-(2,6-difluorophenyl)-9-(fluoromethyl)-1,6-dihydrobenzo[d]pyrazolo[3,4-f][1,3]diazepine]	< 0.01
Fc1cccc(F)c1C1=Nc2ccncc2-c2[nH]ncc2N1 [Compound 53, 5-(2,6-difluorophenyl)-1,4-dihydropyrazolo[4,3-d]pyrido[3,4-f][1,3]diazepine]	< 0.01
Cc1cnc2c(c1)-c1[nH]ncc1N=C(c1c(F)cccc1F)N2 [Compound 61, 5-(2,6-difluorophenyl)-9-methyl-1,6-dihydropyrazolo[4,3-d]pyrido[3,2-f][1,3]diazepine]	< 0.01
Fc1cccc(F)c1C1=Nc2cn[nH]c2-c2cc(C(F)(F)F)cnc2N1 [Compound 63, 5-(2,6-difluorophenyl)-9-(trifluoromethyl)-1,6-dihydropyrazolo[4,3-d]pyrido[3,2-f][1,3]diazepine]	< 0.01
Fc1cccc(F)c1C1=Nc2cn[nH]c2-c2cc(Cl)cnc2N1 [Compound 64, 9-chloro-5-(2,6-difluorophenyl)-1,6-dihydropyrazolo[4,3-d]pyrido[3,2-f][1,3]diazepine]	< 0.01
Fc1cccc(F)c1C1=Nc2cn[nH]c2-c2cc(C3=CCOCC3)cnc2N1 [Compound 67, 5-(2,6-difluorophenyl)-9-(3,6-dihydro-2H-pyran-4-yl)-1,6-dihydropyrazolo[4,3-d]pyrido[3,2-f][1,3]diazepine]	< 0.01
Fc1cccc(F)c1C1=Nc2cn[nH]c2-c2cn(-c3ccccc3)nc2N1 [Compound 68, 5-(2,6-difluorophenyl)-8-phenyl-6,8-dihydro-1H-dipyrazolo[3,4-d:3 ′,4′-f][1,3]diazepine]	< 0.01
Fc1cccc(F)c1C1=Nc2c(Br)n[nH]c2-c2ccccc2N1 [Compound 69, 3-bromo-5-(2,6-difluorophenyl)-1,6-dihydrobenzo[d]pyrazolo[3,4-f][1,3]diazepine]	< 0.01
Fc1cccc(F)c1C1=Nc2cnccc2-c2[nH]ncc2N1 [Compound 71, 5-(2,6-difluorophenyl)-1,4-dihydropyrazolo[4,3-d]pyrido[4,3-f][1,3]diazepine]	< 0.01
Fc1cccc(F)c1C1=Nc2cn[nH]c2-c2cn[nH]c2N1 [Compound 72, 5-(2,6-difluorophenyl)-6,7-dihydro-1H-dipyrazolo[3,4-d:3′,4′-f][1,3]diazepine]	< 0.01
O=C(O)c1ccc2c(c1)N=C(c1c(F)cccc1F)Nc1cn[nH]c1-2 [Compound 73, 5-(2,6-difluorophenyl)-1,4-dihydrobenzo[d]pyrazolo[3,4-f][1,3]diazepine-8-carboxylic acid]	< 0.01
Cc1n[nH]c2c1NC(c1c(F)cccc1F)=Nc1ccccc1-2 [Compound 76, 5-(2,6-difluorophenyl)-3-methyl-1,4-dihydrobenzo[d]pyrazolo[3,4-f][1,3]diazepine]	< 0.01
COc1cc2c(cc1OC)-c1[nH]ncc1N=C(c1c(F)cccc1F)N2 [Compound 77, 5-(2,6-difluorophenyl)-8,9-dimethoxy-1,6-dihydrobenzo[d]pyrazolo[3,4-f][1,3]diazepine]	< 0.01
O=C(c1ccc2c(c1)N=C(c1c(F)cccc1Cl)Nc1cn[nH]c1-2)N1CCOCC1 [Compound 78, (5-(2-chloro-6-fluorophenyl)-1,4-dihydrobenzo[d]pyrazolo[3,4-f][1,3]diazepin-8-yl)(morpholino)methanone]	< 0.01
O=C(c1ccc2c(c1)N=C(c1c(Cl)cccc1Cl)Nc1cn[nH]c1-2)N1CCOCC1 [Compound 79, (5-(2,6-dichlorophenyl)-1,4-dihydrobenzo[d]pyrazolo[3,4-f][1,3]diazepin-8-yl)(morpholino)methanone]	< 0.01
NC(=O)c1ccc2c(c1)N=C(c1c(F)cccc1F)Nc1cn[nH]c1-2 [Compound 81, 5-(2,6-difluorophenyl)-1,4-dihydrobenzo[d]pyrazolo[3,4-f][1,3]diazepine-8-carboxamide]	< 0.01
Fc1cccc(F)c1C1=Nc2cn[nH]c2-c2cc(C3CCOCC3)cnc2N1 [Compound 86, 5-(2,6-difluorophenyl)-9-(tetrahydro-2H-pyran-4-yl)-1,6-dihydropyrazolo[4,3-d]pyrido[3,2-f][1,3]diazepine]	< 0.01
